From patent EP4748860A1 (Kanglitai Biomedical (Qingdao) Co., Ltd., dated 2026)
No constants are given. Whether binding was seen depends on the method and setting. Some binding calls cover weakened binding; strength is not graded here.

B1: HER2-8-hFc (Fc fusion)
chain: QVQLQESGGGLVQAGGSLRLSCAASGRTFSGAGVGWFRQDPEKEREFVAAIAWSGGSTRYADSVKGRFTISRDNTENTVFLQMNNLRPEDTAVYYCAATRRFYSGLTYTQRDVYDNWGQGTQVTVSS
notes: VHH gene cloned into pABG1-Fc (human Fc fragment), expressed in FreeStyle 293-F cells, Protein A purified; also called HER2-8-Fc; not shown: human Fc fragment of vector pABG1-Fc
B2: HER2-11-hFc (Fc fusion)
chain: QVQLQESGGGLVQAGGSLRLSCAASGHTVSRNMMGWFRQAPGKEREFVSAIAWNGEDTYYAESVEGRFTISKDNVKNTIYLQMNSLKPEDTAVYYCAASLFRLWNSATAGNNRVYHYWGQGTQVTVSS
notes: VHH gene cloned into pABG1-Fc (human Fc fragment), expressed in FreeStyle 293-F cells, Protein A purified; also called HER2-11-Fc; not shown: human Fc fragment of vector pABG1-Fc
B3: HER2-10-hFc (Fc fusion)
chain: QVQLQESGGGLVQPGGSLRLSCTAARNIFGRNVMGWFRQAPGKQREFVAHITGGSAVIYATSVKGRFTISRDNAKNTVYLQMNNLTLDDTAVYFCRAVNDDLWGQGTQVTVSS
notes: VHH gene cloned into pABG1-Fc (human Fc fragment), expressed in FreeStyle 293-F cells, Protein A purified; also called HER2-10-Fc; not shown: human Fc fragment of vector pABG1-Fc
B4: HER2-8 (VHH, not shown: small tags and cut ends)
VHH: B1 chain
B5: HER2-11 (VHH, not shown: small tags and cut ends)
VHH: B2 chain
B6: HER2-10 (VHH, not shown: small tags and cut ends)
VHH: B3 chain
B7: HER2-38 (VHH, not shown: small tags and cut ends)
VHH: QLQESGGGLVQAGDSLRLSCAASERTFARYVMGWFRQAPGKDREFVAHIYSSGSTAYEGSVKGRFTISRDNAKNTVYLQMNNLKPEDTAVYYCAARPRDTVWTSSASWGQGTQVTVSS

Each binder was assayed against HER2-His recombinant protein (human) (UniProt P04626) (assay: ELISA, HER2-His coated).

binding	Binder
binds	B1
binds	B2
binds	B3

Each binder was assayed against human HER2 protein (coated antigen of the specificity ELISA) (human) (UniProt P04626) (assay: ELISA, antigen coated at 200 ng per well, antibody 0.2 µg per well).

binding	Binder
binds	B1
binds	B2
binds	B3

These binders were tested against HER2 protein expressed by SKBR3 cells (UniProt P04626) (assay: flow cytometry on SKBR3 cells).

binding	Binder
binds	B4
binds	B1
binds	B5
binds	B2
binds	B6
binds	B3
binds	B7
